Data published in publication doi:10.1101/2022.09.09.507138.
No constants are given. Whether binding was seen depends on the method and setting. Binding seen in cells or lysates may run through a third protein. Some binding calls cover weakened binding; strength is not graded here. For some of these results: Where a sequence is shown, tags or fusion partners need not be part of it.

Amino acid sequences for entries named in this document (tags omitted).
UniProt Q99929: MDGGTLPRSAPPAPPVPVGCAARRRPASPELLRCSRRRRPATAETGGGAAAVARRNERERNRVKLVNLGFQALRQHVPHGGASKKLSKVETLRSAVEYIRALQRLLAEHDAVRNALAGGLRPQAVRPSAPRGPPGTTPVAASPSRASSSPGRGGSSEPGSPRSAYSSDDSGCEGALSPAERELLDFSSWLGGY

How the values were obtained:
[1] = target: T1, endogenous mSin3a (SW480 cells) (human (endogenous in SW480)) (UniProt Q96ST3); assay: proximity ligation
T1 sequence: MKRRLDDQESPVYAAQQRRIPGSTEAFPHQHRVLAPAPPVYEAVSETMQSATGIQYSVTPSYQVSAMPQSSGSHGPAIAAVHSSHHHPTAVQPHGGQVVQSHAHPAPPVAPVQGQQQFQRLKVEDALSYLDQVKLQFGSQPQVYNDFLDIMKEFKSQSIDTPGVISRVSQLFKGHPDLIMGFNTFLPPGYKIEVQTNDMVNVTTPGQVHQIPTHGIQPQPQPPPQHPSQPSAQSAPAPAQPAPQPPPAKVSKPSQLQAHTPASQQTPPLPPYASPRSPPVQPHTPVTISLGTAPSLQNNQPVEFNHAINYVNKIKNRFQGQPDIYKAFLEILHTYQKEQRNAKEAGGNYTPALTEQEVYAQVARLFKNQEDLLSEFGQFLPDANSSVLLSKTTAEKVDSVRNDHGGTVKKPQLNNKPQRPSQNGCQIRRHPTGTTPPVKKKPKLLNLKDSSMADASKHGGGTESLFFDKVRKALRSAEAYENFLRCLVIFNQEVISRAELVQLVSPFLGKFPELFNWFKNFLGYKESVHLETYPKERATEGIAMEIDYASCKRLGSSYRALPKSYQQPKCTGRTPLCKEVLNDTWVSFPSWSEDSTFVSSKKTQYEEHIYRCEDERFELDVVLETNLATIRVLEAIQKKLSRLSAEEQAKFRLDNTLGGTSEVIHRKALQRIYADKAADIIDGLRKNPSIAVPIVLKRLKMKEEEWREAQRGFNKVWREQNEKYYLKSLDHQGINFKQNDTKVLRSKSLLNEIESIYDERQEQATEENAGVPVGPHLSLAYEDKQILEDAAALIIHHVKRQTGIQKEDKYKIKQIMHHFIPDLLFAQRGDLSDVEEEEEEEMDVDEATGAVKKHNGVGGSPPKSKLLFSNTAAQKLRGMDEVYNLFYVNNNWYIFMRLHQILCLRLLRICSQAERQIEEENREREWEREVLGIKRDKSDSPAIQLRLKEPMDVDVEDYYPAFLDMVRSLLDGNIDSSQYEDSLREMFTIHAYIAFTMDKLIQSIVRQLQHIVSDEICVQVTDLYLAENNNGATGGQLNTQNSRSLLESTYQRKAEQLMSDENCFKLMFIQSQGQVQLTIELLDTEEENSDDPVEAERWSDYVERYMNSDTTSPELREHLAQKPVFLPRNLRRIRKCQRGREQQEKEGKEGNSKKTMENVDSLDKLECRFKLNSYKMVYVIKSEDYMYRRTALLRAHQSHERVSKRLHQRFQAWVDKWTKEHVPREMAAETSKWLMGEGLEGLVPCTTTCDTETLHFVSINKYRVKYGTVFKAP

[2] = target: endogenous Ascl2 (SW480 cells) (human (endogenous in SW480)) (UniProt Q99929); assay: proximity ligation
[3] = target: T2, endogenous HDAC7 (SW480 cells) (human (endogenous in SW480)) (UniProt Q8WUI4); assay: proximity ligation
T2 sequence: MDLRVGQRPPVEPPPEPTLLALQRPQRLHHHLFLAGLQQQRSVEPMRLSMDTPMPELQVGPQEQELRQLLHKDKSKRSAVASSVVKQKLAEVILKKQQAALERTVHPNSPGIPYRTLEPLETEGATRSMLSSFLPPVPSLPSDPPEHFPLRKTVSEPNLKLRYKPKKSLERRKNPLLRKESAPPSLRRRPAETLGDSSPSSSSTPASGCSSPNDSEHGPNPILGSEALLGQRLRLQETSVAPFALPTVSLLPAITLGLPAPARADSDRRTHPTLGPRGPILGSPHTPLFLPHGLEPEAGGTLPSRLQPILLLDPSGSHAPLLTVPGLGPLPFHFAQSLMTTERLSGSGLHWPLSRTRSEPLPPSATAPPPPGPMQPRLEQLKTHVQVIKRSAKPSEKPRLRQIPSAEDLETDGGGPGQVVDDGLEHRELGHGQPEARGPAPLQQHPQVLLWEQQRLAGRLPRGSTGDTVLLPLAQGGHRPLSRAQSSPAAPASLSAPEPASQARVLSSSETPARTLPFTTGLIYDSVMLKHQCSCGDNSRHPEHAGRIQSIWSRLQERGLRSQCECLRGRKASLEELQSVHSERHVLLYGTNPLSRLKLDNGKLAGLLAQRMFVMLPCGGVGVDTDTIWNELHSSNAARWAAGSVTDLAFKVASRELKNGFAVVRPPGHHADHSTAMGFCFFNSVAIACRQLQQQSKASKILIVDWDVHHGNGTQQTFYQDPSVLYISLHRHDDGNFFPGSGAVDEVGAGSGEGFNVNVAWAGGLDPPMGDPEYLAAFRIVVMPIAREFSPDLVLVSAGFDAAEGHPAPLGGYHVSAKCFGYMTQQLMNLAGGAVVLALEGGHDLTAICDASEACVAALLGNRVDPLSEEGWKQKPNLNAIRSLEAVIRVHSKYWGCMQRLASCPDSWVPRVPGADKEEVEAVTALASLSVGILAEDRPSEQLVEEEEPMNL

[4] = target: T1, endogenous mSin3a (SW480 cells) (human (endogenous in SW480)); assay: co-IP
[5] = target: T2, endogenous HDAC7 (SW480 cells) (human (endogenous in SW480)); assay: co-IP
HDAC7-Flag = target: T3, HDAC7-Flag (UniProt Q8WUI4); assay: co-IP
T3 sequence: T2 sequence

Myc-mSin3a = target: T4, Myc-mSin3a (UniProt Q60520); assay: co-IP
T4 sequence: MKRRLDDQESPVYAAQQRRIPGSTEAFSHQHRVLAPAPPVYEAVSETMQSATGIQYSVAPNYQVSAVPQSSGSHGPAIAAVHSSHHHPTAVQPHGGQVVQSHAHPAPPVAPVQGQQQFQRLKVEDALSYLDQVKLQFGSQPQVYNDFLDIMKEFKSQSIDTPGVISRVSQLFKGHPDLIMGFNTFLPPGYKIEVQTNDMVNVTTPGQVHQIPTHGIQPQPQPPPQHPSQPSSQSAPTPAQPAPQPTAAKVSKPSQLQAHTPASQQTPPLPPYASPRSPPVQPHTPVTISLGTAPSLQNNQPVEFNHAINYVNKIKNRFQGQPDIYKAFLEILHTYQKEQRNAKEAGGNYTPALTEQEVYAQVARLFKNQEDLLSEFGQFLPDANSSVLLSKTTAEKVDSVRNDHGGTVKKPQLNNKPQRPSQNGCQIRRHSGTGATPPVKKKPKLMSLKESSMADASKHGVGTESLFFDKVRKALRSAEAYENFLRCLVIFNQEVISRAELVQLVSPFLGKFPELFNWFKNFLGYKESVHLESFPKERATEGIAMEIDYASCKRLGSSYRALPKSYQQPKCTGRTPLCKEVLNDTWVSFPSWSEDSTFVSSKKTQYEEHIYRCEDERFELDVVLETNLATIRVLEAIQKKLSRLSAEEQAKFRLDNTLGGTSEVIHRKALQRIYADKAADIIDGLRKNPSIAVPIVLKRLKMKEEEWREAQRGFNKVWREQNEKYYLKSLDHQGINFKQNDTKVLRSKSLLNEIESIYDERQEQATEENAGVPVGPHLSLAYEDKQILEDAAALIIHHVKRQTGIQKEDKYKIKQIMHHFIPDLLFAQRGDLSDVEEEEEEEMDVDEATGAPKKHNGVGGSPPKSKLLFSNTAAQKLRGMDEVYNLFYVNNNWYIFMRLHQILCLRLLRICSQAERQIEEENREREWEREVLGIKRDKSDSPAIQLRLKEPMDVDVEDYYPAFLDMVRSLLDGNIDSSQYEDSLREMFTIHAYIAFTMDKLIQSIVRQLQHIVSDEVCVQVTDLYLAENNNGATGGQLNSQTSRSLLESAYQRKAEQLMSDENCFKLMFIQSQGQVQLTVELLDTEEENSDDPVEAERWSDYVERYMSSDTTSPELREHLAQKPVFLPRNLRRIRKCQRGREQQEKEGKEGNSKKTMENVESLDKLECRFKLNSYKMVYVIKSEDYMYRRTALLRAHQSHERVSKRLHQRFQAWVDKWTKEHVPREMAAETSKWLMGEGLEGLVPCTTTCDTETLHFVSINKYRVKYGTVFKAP

Measured: binding

B1: endogenous p57^Kip2 (SW480 cells) (protein, UniProt P49918 1-316)
chain: MSDASLRSTSTMERLVARGTFPVLVRTSACRSLFGPVDHEELSRELQARLAELNAEDQNRWDYDFQQDMPLRGPGRLQWTEVDSDSVPAFYRETVQVGRCRLLLAPRPVAVAVAVSPPLEPAAESLDGLEEAPEQLPSVPVPAPASTPPPVPVLAPAPAPAPAPVAAPVAAPVAVAVLAPAPAPAPAPAPAPAPVAAPAPAPAPAPAPAPAPAPAPDAAPQESAEQGANQGQRGQEPLADQLHSGISGRPAAGTAAASANGAAIKKLSGPLISDFFAKRKRSAPEKSSGDVPAPCPSPSAAPGVGSVEQTPRKRLR
binds: [1] | [2] | [3] | [4] | [5]

B2: Flag-p57 (protein, UniProt P49919 1-348)
chain: MGMSDVYLRSRTAMERLASSDTFPVIARSSACRSLFGPVDHEELGRELRMRLAELNAEDQNRWDFNFQQDVPLRGPGRLQWMEVDSESVPAFYRETVQVGRCRLQLGPRPPPVAVAVIPRSGPPAGEAPDGLEEAPEQPPSAPASAVVAEPTPPATPAPASDLTSDPIPEVTLVATSDPTPDPIPDANPDVATRDGEEQVPEQVSEQGEESGAEPGDELGTEPVSEQGEEQGAEPVEEKDEEPEEEQGAEPVEEQGAEPVEEQNGEPVEEQDENQEQRGQELKDQPLSGIPGRPAPGTAAANANDFFAKRKRTAQENKASNDVPPGCPSPNVAPGVGAVEQTPRKRLR
binds: HDAC7-Flag | Myc-mSin3a
